# Laboratory results taken from PubChem BioAssay AID2662 (National Center for Advancing Translational Sciences (NCATS), 2010).
# Protein sequences, listed by entry. Tags and fused reporters are not part of them.
# UniProt Q03164, whole entry, looked up: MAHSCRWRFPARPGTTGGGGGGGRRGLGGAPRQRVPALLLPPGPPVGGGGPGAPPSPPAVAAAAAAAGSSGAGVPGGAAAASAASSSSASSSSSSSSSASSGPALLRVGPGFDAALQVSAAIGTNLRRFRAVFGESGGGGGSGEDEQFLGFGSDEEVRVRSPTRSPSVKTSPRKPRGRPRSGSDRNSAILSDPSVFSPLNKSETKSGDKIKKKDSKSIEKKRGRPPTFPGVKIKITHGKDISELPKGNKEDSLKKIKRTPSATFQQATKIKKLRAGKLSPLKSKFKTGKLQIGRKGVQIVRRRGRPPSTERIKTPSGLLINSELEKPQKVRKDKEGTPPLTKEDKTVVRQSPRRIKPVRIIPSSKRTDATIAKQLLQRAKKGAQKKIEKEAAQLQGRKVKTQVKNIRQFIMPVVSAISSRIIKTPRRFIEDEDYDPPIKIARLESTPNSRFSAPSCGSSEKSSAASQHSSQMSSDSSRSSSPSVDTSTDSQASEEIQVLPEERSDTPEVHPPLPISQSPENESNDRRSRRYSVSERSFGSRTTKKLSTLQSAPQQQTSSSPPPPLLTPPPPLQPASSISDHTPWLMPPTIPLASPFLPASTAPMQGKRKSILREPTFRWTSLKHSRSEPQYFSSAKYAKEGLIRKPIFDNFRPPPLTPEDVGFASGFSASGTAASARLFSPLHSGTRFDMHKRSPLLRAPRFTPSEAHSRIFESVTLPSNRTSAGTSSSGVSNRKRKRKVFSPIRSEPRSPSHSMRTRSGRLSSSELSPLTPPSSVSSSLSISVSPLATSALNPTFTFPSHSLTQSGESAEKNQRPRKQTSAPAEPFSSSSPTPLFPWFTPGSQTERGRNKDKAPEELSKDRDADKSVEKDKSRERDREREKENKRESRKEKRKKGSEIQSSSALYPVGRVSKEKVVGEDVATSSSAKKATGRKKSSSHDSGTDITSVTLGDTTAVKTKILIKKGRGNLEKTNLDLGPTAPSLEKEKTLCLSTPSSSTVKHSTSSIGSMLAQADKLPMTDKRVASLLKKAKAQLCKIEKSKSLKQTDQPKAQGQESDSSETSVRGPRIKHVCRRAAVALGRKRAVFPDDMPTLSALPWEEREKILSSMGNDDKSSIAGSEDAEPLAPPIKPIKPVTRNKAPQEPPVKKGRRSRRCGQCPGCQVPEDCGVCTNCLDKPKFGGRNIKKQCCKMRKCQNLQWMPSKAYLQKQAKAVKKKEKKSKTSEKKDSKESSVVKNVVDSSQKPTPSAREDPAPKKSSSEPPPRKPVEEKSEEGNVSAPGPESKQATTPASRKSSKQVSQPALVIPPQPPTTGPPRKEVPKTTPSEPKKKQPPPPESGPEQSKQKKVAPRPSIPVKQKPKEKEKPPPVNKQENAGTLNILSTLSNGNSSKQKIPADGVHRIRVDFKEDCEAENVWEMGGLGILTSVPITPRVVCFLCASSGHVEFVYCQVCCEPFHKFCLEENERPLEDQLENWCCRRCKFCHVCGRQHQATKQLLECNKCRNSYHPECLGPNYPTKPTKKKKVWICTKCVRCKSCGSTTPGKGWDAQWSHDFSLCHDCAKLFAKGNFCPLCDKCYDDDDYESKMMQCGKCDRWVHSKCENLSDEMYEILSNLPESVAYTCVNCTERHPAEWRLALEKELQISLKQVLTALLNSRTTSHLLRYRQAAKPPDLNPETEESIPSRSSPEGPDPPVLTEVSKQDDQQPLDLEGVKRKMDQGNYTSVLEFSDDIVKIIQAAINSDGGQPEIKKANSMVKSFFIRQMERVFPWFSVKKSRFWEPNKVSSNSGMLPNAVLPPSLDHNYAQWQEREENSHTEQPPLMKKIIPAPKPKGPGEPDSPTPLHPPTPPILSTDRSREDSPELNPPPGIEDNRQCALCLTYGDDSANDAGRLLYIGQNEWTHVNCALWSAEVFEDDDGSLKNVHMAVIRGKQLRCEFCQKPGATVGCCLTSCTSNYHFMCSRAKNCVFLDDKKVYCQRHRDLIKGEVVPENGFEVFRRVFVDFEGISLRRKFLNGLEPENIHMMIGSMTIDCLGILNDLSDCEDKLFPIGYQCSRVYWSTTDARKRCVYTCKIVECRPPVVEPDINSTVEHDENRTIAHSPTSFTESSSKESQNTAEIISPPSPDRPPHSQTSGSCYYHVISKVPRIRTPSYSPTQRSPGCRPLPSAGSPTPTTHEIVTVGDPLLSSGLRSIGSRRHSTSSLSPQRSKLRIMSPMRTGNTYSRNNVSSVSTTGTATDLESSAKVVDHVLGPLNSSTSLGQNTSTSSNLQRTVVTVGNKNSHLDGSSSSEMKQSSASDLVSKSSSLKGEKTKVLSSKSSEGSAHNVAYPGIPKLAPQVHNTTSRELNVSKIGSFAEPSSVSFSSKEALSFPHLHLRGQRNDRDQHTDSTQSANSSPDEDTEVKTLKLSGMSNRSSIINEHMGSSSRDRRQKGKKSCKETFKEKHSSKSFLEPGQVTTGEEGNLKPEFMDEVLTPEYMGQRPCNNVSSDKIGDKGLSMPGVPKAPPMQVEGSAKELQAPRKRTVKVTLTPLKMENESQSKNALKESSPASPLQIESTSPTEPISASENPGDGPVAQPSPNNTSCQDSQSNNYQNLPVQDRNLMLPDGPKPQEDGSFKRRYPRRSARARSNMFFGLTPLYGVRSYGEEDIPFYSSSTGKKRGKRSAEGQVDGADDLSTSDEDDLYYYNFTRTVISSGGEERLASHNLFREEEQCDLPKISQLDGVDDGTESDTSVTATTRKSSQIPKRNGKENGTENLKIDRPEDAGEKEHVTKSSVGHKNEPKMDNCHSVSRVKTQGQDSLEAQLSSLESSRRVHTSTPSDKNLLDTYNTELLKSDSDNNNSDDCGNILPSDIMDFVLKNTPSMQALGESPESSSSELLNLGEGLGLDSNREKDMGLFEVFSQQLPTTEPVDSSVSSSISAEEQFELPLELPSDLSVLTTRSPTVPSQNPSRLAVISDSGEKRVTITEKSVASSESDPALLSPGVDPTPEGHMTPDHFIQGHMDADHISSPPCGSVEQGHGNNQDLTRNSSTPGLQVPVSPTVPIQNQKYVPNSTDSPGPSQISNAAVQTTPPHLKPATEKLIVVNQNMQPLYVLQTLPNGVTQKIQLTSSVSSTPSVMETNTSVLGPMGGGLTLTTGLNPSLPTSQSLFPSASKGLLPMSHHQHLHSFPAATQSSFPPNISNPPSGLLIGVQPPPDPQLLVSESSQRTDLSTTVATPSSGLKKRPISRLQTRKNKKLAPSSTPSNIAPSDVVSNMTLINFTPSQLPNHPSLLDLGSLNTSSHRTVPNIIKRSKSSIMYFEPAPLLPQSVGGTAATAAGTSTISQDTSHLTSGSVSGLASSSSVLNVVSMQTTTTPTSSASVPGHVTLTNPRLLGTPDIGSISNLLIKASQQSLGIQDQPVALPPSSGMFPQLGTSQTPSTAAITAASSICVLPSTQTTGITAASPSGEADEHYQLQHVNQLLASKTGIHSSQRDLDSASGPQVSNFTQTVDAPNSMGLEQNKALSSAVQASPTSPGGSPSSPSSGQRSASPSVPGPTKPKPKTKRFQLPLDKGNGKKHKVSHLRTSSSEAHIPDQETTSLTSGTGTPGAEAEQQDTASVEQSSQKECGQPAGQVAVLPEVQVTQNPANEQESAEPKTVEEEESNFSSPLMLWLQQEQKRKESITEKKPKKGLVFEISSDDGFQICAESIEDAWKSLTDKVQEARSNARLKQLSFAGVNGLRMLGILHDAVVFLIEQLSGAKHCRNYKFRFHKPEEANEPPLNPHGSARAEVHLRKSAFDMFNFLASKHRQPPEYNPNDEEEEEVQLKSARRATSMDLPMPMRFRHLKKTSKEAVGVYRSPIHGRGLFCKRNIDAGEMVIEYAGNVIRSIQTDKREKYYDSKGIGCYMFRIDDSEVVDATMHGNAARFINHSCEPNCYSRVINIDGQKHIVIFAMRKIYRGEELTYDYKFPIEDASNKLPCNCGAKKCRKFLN
# In all, about 290,000 compounds went through this assay and about 110 (0.038%) were called active. This list was built around the results that the source calls inconclusive (neither active nor inactive); the mix of calls is not that of the screen. The call rests on the fitted dose curve; in most records, active means well fitted inhibition curve with a large enough effect in the polarisation, with a control signal flat (not every such curve was filed as active); inconclusive means small, poorly fitted or top-dose-only effect, or effect the other way, or a change in a side signal; inactive means no such curve, though single readings can be large or run the other way; the % refers to the polarisation. Potencies beside an inconclusive call are fits to weak or partial responses and may not hold up. “Side channel” marks fits to a control or component signal instead of the main read-out.
# Biological target: Histone-lysine N-methyltransferase 2A (Homo sapiens) (UniProt Q03164)
# Experiment: qHTS Fluorescence Polarization Assay for Inhibitors of MLL CXXC domain - DNA interaction
# Conditions: MLL-CXXC / FITC-HOXA9 DNA fluorescence polarization; activity change, negative = inhibition: at 115 µM (top of the series)
# In short: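 Fluorescence polarization: 7 uM MLL-CXXC (stock) preincubated 5 min with compounds, then 50 nM fluorescein-HOX-A9 DNA (stock) added; 30 min ambient. Buffer 50 mM Tris-HCl pH 7.5, 50 mM NaCl, 1 mM DTT, 0.05% BSA.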
# Potency means the concentration at half of the fitted maximal effect.
SMILES,Potency,"activity change, negative = inhibition"
NC(=O)CN1C(=O)C(=O)N(Cc2cccc(Cl)c2)C1=O,"inconclusive: 11.2 µM [inhibitor, partial curve]",
CN(C)c1ccc(/C=C/C(=O)c2cc(Cl)ccc2O)cc1,"inconclusive: 89.1 µM [inhibitor, single point]",
Cc1cnn(CCC(=O)NNC(=S)NCC(C)C)c1,,inactive: 16.6%
Cc1cc(=O)n2[nH]c(=O)c(N=Nc3ccccc3)c2[nH]1,"inconclusive: 35.5 µM [inhibitor, single point]",
CCOC(=O)c1cnc2c(C)c(C)ccc2c1NCCN1CCOCC1,"inconclusive: 6.31 µM [fluorescent, side channel, full curve]",
OCC1(CCc2ccccc2)CCN(C/C=C/c2ccccc2)CC1,,inactive: 9.95%
CCN1/C(=C/c2ccc3cc(C)cc(C)c3[n+]2CC)Sc2cc(C)ccc21,"inconclusive: 7.08 µM [fluorescent, side channel, full curve]",
[N-]=[N+]=Nc1ccc(C(=O)CSC[C@H](NC(=O)CC[C@H](N)C(=O)O)C(=O)NCC(=O)O)cc1,,inactive: -15.8%
O=C(O)c1ccc(N2C(=O)/C(=C/c3ccc(-c4ccc([N+](=O)[O-])cc4)o3)C=C2c2ccccc2)cc1,"inconclusive: 89.1 µM [inhibitor, single point]",
CCOC(=O)c1c(/N=C/C2C(=O)CCCC2=O)sc2c1CCCC2,"inconclusive: 63.1 µM [fluorescent, side channel, partial curve]",
CN1CCc2c(sc3c2C(=O)NC(/C=C\c2ccccc2)N3)C1 (stereo not given),"inconclusive: 50.1 µM [fluorescent, side channel, partial curve]",
CCC1(C)Cc2nc3[nH]c(=S)n(-c4ccc(C)cc4)c(=O)c3cc2CO1 (stereo not given),"inconclusive: 70.8 µM [fluorescent, side channel, single point]",
N#CC1=C(N)Oc2cc(O)c(Cl)cc2C1c1ccccc1F (stereo not given),"inconclusive: 31.6 µM [fluorescent, side channel, partial curve]",
Oc1c(C(c2ccccc2Cl)N2CCCC2)ccc2cccnc12 (stereo not given),"inconclusive: 39.8 µM [fluorescent, side channel, partial curve]",
O=c1nc(/C=C/c2ccc(-c3ccc(F)cc3)o2)cc(C(F)(F)F)[nH]1,"inconclusive: 14.1 µM [fluorescent, side channel, partial curve]",
COc1cccc(CNC(=O)c2c[nH]n3c(=O)c(Cl)c(C)nc23)c1,,inactive: 6.43%
COCCn1c(N)c(NCc2ccccc2)c(=O)[nH]c1=O,"inconclusive: 31.6 µM [fluorescent, side channel, partial curve]",
CC1=NN(c2cccc(F)c2)C(=O)/C1=C/c1ccc(N(C)C)cc1,"inconclusive: 3.16 µM [inhibitor, full curve]",
CCCCOc1ccccc1NC(=O)c1ccco1,,inactive: -0.0901%
N#CC(C#N)=Cc1ccc(-c2ccc(S(=O)(=O)N=C(N)N)cc2)o1,"inconclusive: 89.1 µM [fluorescent, side channel, single point]",

SMILES,Potency,"activity change, negative = inhibition"
COc1ccccc1C(CCNCc1ccccc1)c1ccc(OC(C)C)cc1 (stereo not given),"inconclusive: 70.8 µM [fluorescent, side channel, partial curve]",
COc1cc(/C=N/NC(=O)c2c(C)nnn2-c2nonc2N)ccc1O,"inconclusive: 89.1 µM [inhibitor, single point]",
Cn1cccc1C(=O)N/N=C/c1c(Cl)cccc1Cl,,inactive: 11.4%
CCN1C(=NCCc2c[nH]c3ccccc23)N[C@@H](c2ccccc2)C(C(=O)OC)=C1C,"inconclusive: 31.6 µM [quencher, side channel, partial curve]",
c1ccc(Oc2c3ccccc3nc3ccccc23)cc1,"inconclusive: 56.2 µM [inhibitor, partial curve]",
N#C/C(=C\c1ccc(OCc2ccc(C(=O)O)cc2)cc1)C(=O)NCc1ccccc1,"inconclusive: 3.98 µM [inhibitor, full curve, poor fit]",
COc1ccc(-n2ncc(Cl)c(Cl)c2=O)cc1,"inconclusive: 10 µM [inhibitor, full curve]",
CCCOc1ccc(-c2nc(SCc3ccccc3)[nH]c(=O)c2C#N)cc1OC,,inactive: 3.08%
CC(C)=CC(=O)Nc1ccc(S(=O)(=O)Nc2onc(C)c2C)cc1,,inactive: 1.46%
CCCn1nc(-c2ccccc2)c2nc3ccccc3nc21,"inconclusive: 31.6 µM [fluorescent, partial curve]",
O=C(CSc1ncccn1)NCc1ccc2c(c1)OCO2,,inactive: 34.1%
COC(=O)/C(=C/c1c[nH]c2ccccc12)[N+](=O)[O-],"inconclusive: 25.1 µM [inhibitor, partial curve]",
COc1ccc(OC)c(S(=O)(=O)N2CCC(NC(=O)c3ccccc3)CC2)c1,"inconclusive: 63.1 µM [fluorescent, side channel, single point]",
Cc1csc(Nc2ccccc2)n1,"inconclusive: 70.8 µM [fluorescent, side channel, single point]",
CSc1ccccc1OCc1cc(C(=O)NCCC2=CCCCC2)no1,"inconclusive: 35.5 µM [fluorescent, side channel, partial curve]",
CCOC(=O)c1ccc(N2C(=O)c3n[nH]c(-c4ccco4)c3C2c2cccc([N+](=O)[O-])c2)cc1 (stereo not given),,inactive: 15.8%
CCn1cnc2c1c(=O)n(CC(=O)NCC(C)C)c(=O)n2Cc1ccccc1,"inconclusive: 17.8 µM [fluorescent, side channel, partial curve, poor fit]",
COC(=O)/C=C1\N/C(=N\c2nc(C)cc(C)n2)N(c2ccc(C)cc2)C1=O,"inconclusive: 70.8 µM [fluorescent, side channel, single point]",
CCOc1ccc(S(=O)(=O)N2CCC(C(=O)NCc3cccnc3)CC2)cc1,"inconclusive: 12.6 µM [fluorescent, side channel, single point]",
Cc1ccsc1C=C1C(=O)c2ccccc2C1=O,"inconclusive: 39.8 µM [inhibitor, partial curve]",
